Data published in PMC5622071, “The identification of molecular target of (20S) ginsenoside Rh2 for its anti-cancer activity” (Scientific Reports, 2017).

The chains behind the UniProt entries cited, without tags or fusion partners. Where a name states a change or a piece, a line headed by the entry shows the natural chain unless it says otherwise. Residues count along the entry.
UniProt P19838, residues 1-433: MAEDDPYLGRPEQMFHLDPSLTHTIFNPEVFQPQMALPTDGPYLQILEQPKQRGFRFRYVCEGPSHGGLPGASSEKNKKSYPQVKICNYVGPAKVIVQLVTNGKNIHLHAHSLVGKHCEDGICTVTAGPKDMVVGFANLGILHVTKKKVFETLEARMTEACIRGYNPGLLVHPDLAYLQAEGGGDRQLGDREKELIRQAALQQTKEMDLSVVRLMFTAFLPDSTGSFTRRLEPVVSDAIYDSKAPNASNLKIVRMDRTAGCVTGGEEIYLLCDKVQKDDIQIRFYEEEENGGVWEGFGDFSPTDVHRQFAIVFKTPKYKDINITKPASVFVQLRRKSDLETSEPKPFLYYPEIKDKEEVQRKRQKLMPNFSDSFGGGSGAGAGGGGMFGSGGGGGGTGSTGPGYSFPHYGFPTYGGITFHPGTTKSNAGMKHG
UniProt P07355: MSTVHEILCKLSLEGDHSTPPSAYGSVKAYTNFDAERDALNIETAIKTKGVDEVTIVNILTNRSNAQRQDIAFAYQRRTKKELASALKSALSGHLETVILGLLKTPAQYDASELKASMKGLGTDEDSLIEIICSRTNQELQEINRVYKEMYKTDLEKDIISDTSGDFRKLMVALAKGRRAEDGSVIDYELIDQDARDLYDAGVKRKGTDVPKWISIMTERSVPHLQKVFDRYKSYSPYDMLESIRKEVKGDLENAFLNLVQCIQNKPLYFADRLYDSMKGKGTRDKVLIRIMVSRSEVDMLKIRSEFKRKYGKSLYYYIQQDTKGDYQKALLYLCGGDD

Key:
[1] = molecular target: NF-кB p50 subunit (human (endogenous in HepG2)) (UniProt P19838); experiment: co-IP; HepG2 cells transfected with myc-fused Annexin A2 (WT or K302A), treated 12 h without or with 3.75 μg/mL (20S)G-Rh2; whole-cell lysate IP with anti-NF-кB p50, anti-myc and anti-Annexin A2 antibody
[2] = molecular target: non-tagged NF-кB p50 subunit (pEXS-p50) (human) (UniProt P19838); experiment: co-IP; lysates of E. coli BL21 (DE3) expressing non-tagged Annexin A2 or NF-кB p50 (1 mg each) mixed, 4 °C overnight, without or with 3.75 μg/mL (20S)G-Rh2; IP with anti-NF-кB p50 or anti-Annexin A2 antibody; 100 mM PBS, 125 mM NaCl

Row | Substance | binding [1] | binding [2]
1 | Annexin A2-K302A-myc (from UniProt P07355) | binds | –
2 | Annexin A2-WT-myc (from UniProt P07355) | binds | –
3 | non-tagged Annexin A2 (pEXS-Annexin A2) (from UniProt P07355) | – | binds

Results are given in words; binding and its absence hold for the method and conditions named. In cells and extracts the contact can be indirect. Binding can be weak; no strength is given.
